Results from US20180296523A1, “USE OF POLYMETHOXYLATED FLAVONES TO AMELIORATE CIRCADIAN RHYTHM DISORDERS” (THE BOARD OF REGENTS OF THE UNIVERSITY OF TEXAS SY, priority 2017, published 2018).

System: clock genes and metabolic output genes in mouse liver
Assay: Liver gene expression in HFD-fed WT mice (qPCR, Western blot, microarray)
Format: in vivo
Conditions: for number of genes with altered expression, nobiletin/HF: microarray
Protocol: For qPCR analysis, cells were split into 6-well plates at an initial density of 3×10^5 cells and incubated for 2-4 days before synchronization (5 μM Fsk or 100 nM Dex) followed by compound treatment. RNA samples were prepared by using PureXtract RNAsol for cDNA synthesis and real-time PCR (GenDEPOT) was performed with a MaxPro3000 Thermocycler (Agilent). qPCR primers used are listed in the table shown in Example 4. Whole cell lysates from cells similarly grown and treated in 60 mm dishes and tissue extracts were prepared as described (Yoo et al., 2013) and subjected to Western blot analysis (GenDEPOT). Antibodies for REV-ERBα (Pierce and Cell Signaling), PER1 (Lee et al., 2001) and other clock proteins (Yoo et al., 2013) were used. Total RNAs prepared from liver tissues from RC-fed, Vehicle-treated and HFD-fed, Vehicle or NOB-treated WT mice for 10 weeks were reverse transcribed into cDNAs, which were then biotin-UTP labeled and hybridized to the Illumina mouse WG-6v2.0 Expression BeadChip. Genes with statistically significant fold change differences was clustered using centered correlation (Cluster 3.0) and then visualized as a heat map on Tree View. Moreover, genes with statistically significant differences derived from microarray analyses were imported into the Ingenuity Pathway Analysis (IPA, http://www.ingenuity.com). In IPA, differentially expressed genes are mapped to genetic networks in the Ingenuity Knowledge Database to generate a set of network and then ranked by score. Heatmaps were generated by using Cluster 3.0 program. ChIP-seq data analysis was conducted as previously described (Koike et al., 2012). The data discussed in this publication have been deposited in NCBI's Gene Expression Omnibus (Edgar et al., 2002) and are accessible through GEO Series accession number GSE78848. To characterize the molecular basis of nobiletin action in HFD-fed WT mice, studies focused on a major metabolic organ, the liver, in which we observed a strong protection by nobiletin was observed. Specifically, total RNAs prepared from liver tissues from RC.Veh and HF.Veh or HF.nobiletin WT mice for 10 weeks were reverse transcribed into cDNAs, which were then biotin-UTP labeled and hybridized to the Illumina mouse WG-6v2.0 Expression BeadChip. The data discussed in this publication have been deposited in the National Center for Biotechnology Information's Gene Expression Omnibus (GEO) and are accessible through GEO Series accession number GSE78848. Real-time qPCR and western blotting analyses of circadian gene expression were conducted as previously described (Yoo et al., 2013). Primers used were as follows: […]

For `COc1ccc(-c2cc(=O)c3c(OC)c(OC)c(OC)c(OC)c3o2)cc1OC` [nobiletin], the “number of genes altered by HFD and reversed by nobiletin” value (at both time points (ZT2 and ZT14)) was 56 genes, the “number of genes altered by HFD and reversed by nobiletin” value (at one time point (ZT2 or ZT14)) was 251 genes and the “number of genes with altered expression, nobiletin/HF” value (ZT2 (third value of the list)) was 915 genes. The “number of genes with altered expression, nobiletin/HF” value (ZT14 (fourth value of the list)) was 243 genes.
